{"source": "PubChem BioAssay AID2685", "about": "(National Center for Advancing Translational Sciences (NCATS), 2010)", "note": "Hit rate of the full screen: of about 320,000 compounds, about 2,100 (0.66%) were called active. Inconclusive means that the source gave no clear call. Such entries were picked first, then a sample of the others. Calls come from the whole dose curve; as a rule, active = well fitted inhibition curve with a large enough effect in the signal ratio, with a control signal flat (not every such curve was filed as active); inconclusive = small, poorly fitted or top-dose-only effect, or effect the other way, or a change in a side signal; inactive = flat fitted curve, though single readings scatter; the % refers to the signal ratio. Where the call is inconclusive, the potency comes from a doubtful curve fit. % is set by controls: 0 for no effect and ±100 for the full control effect; potency is the fitted concentration of half-maximal effect.", "data": [{"experiment": "qHTS Assay for Lipid Storage Modulators in Drosophila S3 Cells", "conditions": "BODIPY lipid droplet fluorescence, 18-24 h, cells fed with added oleic acid; lipid storage change, negative = inhibition: at 46.1 µM (top of the series) unless noted", "method_in_brief": "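Drosophila S3 cells got compounds at several concentrations plus oleic acid (400 uM solution). Laser-scanning cytometry with 488 nm excitation read lipid droplets at 500-530 nm and cells at 575-640 nm. Percent activity was relative to 20 uM Triacsin C.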", "values": [{"smiles": "Cc1cc2[nH]cnc2c([N+](=O)[O-])c1C", "lipid storage change, negative = inhibition": "inconclusive: 19%"}, {"smiles": "NNC(=O)Cn1c(COc2ccc(Cl)cc2)nc2ccccc21", "lipid storage change, negative = inhibition": "inconclusive: 26.4%"}, {"smiles": "CCOc1ccc(-c2nnc(-c3cccs3)o2)cc1OCC", "lipid storage change, negative = inhibition": "inconclusive: 16.4%"}, {"smiles": "CC1CCCCC12NC(=O)N(CC(=O)N1CCc3ccccc3C1)C2=O", "note": "(stereo not given)", "lipid storage change, negative = inhibition": "inconclusive: 11.2%"}, {"smiles": "CCc1ccccc1NC(=O)CCNS(=O)(=O)c1cc(Br)cnc1N", "lipid storage change, negative = inhibition": "inconclusive: -2.73%"}, {"smiles": "[O-][n+]1onc2c1CCc1c-2nn(-c2ccccc2Cl)[n+]1[O-]", "lipid storage change, negative = inhibition": "inconclusive: -47.1%"}, {"smiles": "COc1ccnc(N=CNOCc2ccc(C)cc2)c1C#N", "lipid storage change, negative = inhibition": "inconclusive: 14.9%"}, {"smiles": "Cc1cccc(C)c1NC(=O)CN(c1ccccn1)S(=O)(=O)c1ccc(F)cc1", "lipid storage change, negative = inhibition": "inconclusive: -5.96%"}, {"smiles": "Cc1ccc(C(C#N)c2ccc(C(=O)c3ccc(F)cc3)cc2)cc1", "note": "(stereo not given)", "Potency": "inconclusive: 20.6 µM [falling, single point]"}, {"smiles": "CCC(Sc1nc2ccsc2c(=O)n1Cc1ccc(C(=O)O)cc1)C(=O)Nc1ccc(C)c(Cl)c1", "note": "(stereo not given)", "lipid storage change, negative = inhibition": "inconclusive: 81%"}, {"smiles": "Cc1cc(Br)ccc1OCc1nc(-c2cccnc2)no1", "Potency": "inconclusive: 1.03 µM [rising, partial curve]"}, {"smiles": "Cc1ccc(C(=O)Nc2ncnc3sc4c(c23)CCCCC4)cc1", "Potency": "inconclusive: 29.1 µM [activator, single point]"}, {"smiles": "NC(=O)c1c(NC(=O)c2ccc(S(=O)(=O)N3CCOCC3)cc2)sc2c1CCCCC2", "Potency": "inconclusive: 0.411 µM [activator, full curve, poor fit]"}, {"smiles": "CC(C)CCN(C(=O)CNC(=O)c1cccs1)C(C(=O)NC1CCCC1)c1ccncc1", "note": "(stereo not given)", "lipid storage change, negative = inhibition": "inconclusive: 10.4%"}, {"smiles": "COc1ccc(NS(=O)(=O)c2ccc(OC)c(N(C)S(=O)(=O)c3ccc(Cl)cc3)c2)cc1", "Potency": "inconclusive: 18.4 µM [activator, single point]"}, {"smiles": "CC(=O)N1CCN(CCN2C(C)=CC(=C(C#N)C#N)C=C2C)CC1", "lipid storage change, negative = inhibition": "inconclusive: -66%"}, {"smiles": "N#CCC(=O)Nc1nc(-c2ccc3c(c2)OCCO3)cs1", "lipid storage change, negative = inhibition": "inconclusive: 13.8%"}, {"smiles": "NC(=O)CC(NC(=O)Cc1cccc2ccccc12)c1ccc(NC2CCN(Cc3ccccc3)CC2)c([N+](=O)[O-])c1", "note": "(stereo not given)", "lipid storage change, negative = inhibition": "inconclusive: 7.02%"}, {"smiles": "CCOc1ccc(/C=C2\\SC(=S)N(C(C(=O)O)c3ccccc3)C2=O)cc1OC", "note": "(stereo not given)", "Potency": "inconclusive: 0.13 µM [falling, full curve, poor fit]"}, {"smiles": "Cc1ccc(-n2nnc(-c3cnc4ccccc4c3)n2)cc1", "Potency": "inconclusive: 20.6 µM [falling, single point]"}, {"smiles": "Cn1cccc1/C=N/NC(=O)c1ccc[n+]([O-])c1", "Potency": "inconclusive: 0.291 µM [falling, full curve, poor fit]"}, {"smiles": "CCN(CC)CCSc1nc2ccccc2n1Cc1ccccc1", "Potency": "inconclusive: 0.164 µM [falling, full curve, poor fit]"}, {"smiles": "CCOC(=O)c1c(C)[nH]c(C(=O)COC(=O)CSC)c1C", "lipid storage change, negative = inhibition": "inconclusive: 1.06%"}, {"smiles": "COc1nc(OCCNC(C)=O)nc(N(C)C)n1", "lipid storage change, negative = inhibition": "inconclusive: 88.6%"}, {"smiles": "Cc1ccc(S(=O)(=O)N2CCCOC2CNC(=O)C(=O)NCCCn2ccnc2)cc1", "note": "(stereo not given)", "Potency": "inconclusive: 0.116 µM [falling, full curve, poor fit]"}, {"smiles": "CCOc1ccc(S(=O)(=O)NCCC(=O)NCCc2ccc(C(C)C)cc2)cc1", "lipid storage change, negative = inhibition": "inconclusive: 7.61%"}, {"smiles": "COc1ccc(NC(=O)c2cccnc2)cc1", "lipid storage change, negative = inhibition": "inconclusive: 14.6%"}, {"smiles": "CC1(c2cccc(Br)c2)NC(=O)N(CC(=O)N2CCc3ccccc32)C1=O", "note": "(stereo not given)", "lipid storage change, negative = inhibition": "inconclusive: 2.48%"}, {"smiles": "CC(=O)Nc1cc(NC(C)=O)cc(C(=O)OCC(=O)N(c2ccccc2)C2CCS(=O)(=O)C2)c1", "note": "(stereo not given)", "Potency": "inconclusive: 4.61 µM [activator, full curve, poor fit]"}, {"smiles": "CC(C)(C)OC(=O)CNC(=O)c1[nH]cnc1C(=O)N[C@@H](CCCCNC(=O)OC(C)(C)C)C(=O)OC(C)(C)C", "lipid storage change, negative = inhibition": "inconclusive: 18.9%"}, {"smiles": "COc1ccc(OC)c(-c2csc(NC(=O)c3ccc(F)cc3)n2)c1", "Potency": "inconclusive: 29.1 µM [falling, single point]"}, {"smiles": "COc1ccc(OC)c(Nc2ncnc3sc(-c4ccccc4)cc23)c1", "lipid storage change, negative = inhibition": "inconclusive: 2.2%"}, {"smiles": "O=C(O)Cc1ccc(-c2ccccc2)cc1", "lipid storage change, negative = inhibition": "inconclusive: 2.02%"}, {"smiles": "COc1ccc2c(=O)c(C(=O)NCCc3ccccc3)c[nH]c2c1", "lipid storage change, negative = inhibition": "inconclusive: -49.3%"}, {"smiles": "CCNc1nc2nc3ccc(C)cn3c(=O)c2cc1C(=O)NCC1CCCO1", "note": "(stereo not given)", "lipid storage change, negative = inhibition": "inconclusive: 19.7%"}, {"smiles": "O=c1c(-c2ccc(Cl)cc2)coc2c(CN3CCOCC3)c(O)ccc12", "lipid storage change, negative = inhibition": "inconclusive: 20.7%"}, {"smiles": "Cn1c2c(c(=O)n(C)c1=O)C(c1cccc([N+](=O)[O-])c1)Nc1ccccc1O2", "note": "(stereo not given)", "lipid storage change, negative = inhibition": "inconclusive: 4.25%"}, {"smiles": "O=C(O)c1ccccc1Cc1nc2cc(Cl)ccc2c(=O)[nH]1", "lipid storage change, negative = inhibition": "inconclusive: 1.49% [cytotoxic]"}, {"smiles": "Nc1cccc(CCc2nc3ccccc3[nH]2)c1", "lipid storage change, negative = inhibition": "inconclusive: 1.11%"}, {"smiles": "S=C(c1ccc(-c2ccc(Br)cc2)o1)N1CCCCC1", "lipid storage change, negative = inhibition": "inconclusive: 15.3%"}, {"smiles": "Cc1cccc(C)c1NC(=S)NCCCN1CCCC1=O", "Potency": "active: 0.461 µM"}, {"smiles": "CCN=c1scc(-c2ccc3c(c2)NC(=O)CO3)n1N=C1CCCC1", "lipid storage change, negative = inhibition": "inconclusive: -17.6%"}, {"smiles": "CSc1nc2ccc(NC(=O)c3nn(C(C)C)c(=O)c4ccccc34)cc2s1", "lipid storage change, negative = inhibition": "inconclusive: 32.4%"}, {"smiles": "CCN(CC)c1nc2c(c(=O)n(C)c(=O)n2C)n1CC(=O)c1ccccc1", "lipid storage change, negative = inhibition": "inconclusive: 16.4%"}, {"smiles": "C=CCNC(=O)c1ccccc1NC(=O)C1COc2ccccc2O1", "note": "(stereo not given)", "Potency": "inconclusive: 29.1 µM [falling, single point]"}, {"smiles": "Cc1ccc(-n2cc(C(=O)c3ccccc3O)cn2)cc1", "lipid storage change, negative = inhibition": "inconclusive: -3.44%"}, {"smiles": "Cc1cc(C)nc(N/N=C/c2sccc2C)n1", "lipid storage change, negative = inhibition": "inconclusive: -33.5% [cytotoxic] [at 0.00295 µM]"}, {"smiles": "O=C(COc1ccccc1F)NNC(=O)c1ccc(N2CCCCC2)c([N+](=O)[O-])c1", "Potency": "inconclusive: 29.1 µM [rising, single point]"}, {"smiles": "CSc1ccc(CN2CCC(N3CC(C)OC(C)C3)CC2)cc1", "note": "(stereo not given)", "lipid storage change, negative = inhibition": "inconclusive: 17.7%"}, {"smiles": "COc1cc(NC(=O)CN2C(=O)CN(C)C2=O)c(C)cc1[N+](=O)[O-]", "lipid storage change, negative = inhibition": "inconclusive: 44.7%"}, {"smiles": "Cc1ccc(NC(=O)CSc2nc3ccccc3c(=O)n2CCCN2CCCCC2)cc1C", "Potency": "inconclusive: 23.1 µM [falling, partial curve, poor fit]"}, {"smiles": "COc1ccc(NC(=O)c2ccc(NC(=O)C(C)C)cc2)c([N+](=O)[O-])c1", "Potency": "inconclusive: 0.231 µM [activator, full curve, poor fit]"}, {"smiles": "COc1cc(Cl)c(C)cc1NC(=O)CSc1nnc(-c2ccco2)n1CC(C)C", "Potency": "inconclusive: 32.6 µM [activator, single point]"}, {"smiles": "COc1ccc(S(=O)(=O)NCc2ccco2)cc1C(=O)N1CCCCC1", "Potency": "inconclusive: 0.116 µM [falling, full curve, poor fit]"}, {"smiles": "C=CCn1c(Oc2ccccc2)nc2c1c(=O)n(C)c(=O)n2C", "Potency": "inconclusive: 0.184 µM [falling, full curve, poor fit]"}, {"smiles": "CCCCCC(=O)NNC(=O)c1c(O)c2ccccc2n(CC)c1=O", "lipid storage change, negative = inhibition": "inconclusive: -20.2%"}, {"smiles": "COc1ccc([N+](=O)[O-])cc1NC(=O)c1ccc(CN(c2ccc(C)c(C)c2)S(C)(=O)=O)cc1", "lipid storage change, negative = inhibition": "inconclusive: 0.0885%"}, {"smiles": "CCOC(=O)N1CCN(c2c(NCCCN(CC)c3cccc(C)c3)c(=O)c2=O)CC1", "lipid storage change, negative = inhibition": "inconclusive: -1.57%"}, {"smiles": "Cc1ccc(C(=O)NCC(=O)O)o1", "Potency": "inconclusive: 25.9 µM [falling, single point]"}, {"smiles": "O=C(c1cccc(S(=O)(=O)N2CCCCC2)c1)N(CCc1ccccc1)Cc1ccccc1", "Potency": "inconclusive: 6.51 µM [rising, partial curve, poor fit]"}, {"smiles": "CCC(CC)NC(=O)c1cccc(Br)c1", "lipid storage change, negative = inhibition": "inconclusive: 34%"}, {"smiles": "CC(=O)N1N=C(c2ccc3ccccc3c2)OC1(C)C", "Potency": "inconclusive: 29.1 µM [activator, partial curve]"}, {"smiles": "CC(C)(C)c1ccc(OCCNC(=O)Cc2ccc(F)cc2)cc1", "lipid storage change, negative = inhibition": "inconclusive: 23.4%"}, {"smiles": "O=C(COc1ccc(/C=C2/NC(=O)NC2=O)cc1)Nc1ccc(F)cc1", "lipid storage change, negative = inhibition": "inconclusive: -39.2%"}, {"smiles": "CSc1nc2n(n1)C(C)C1=C(CCCC1=O)N2", "note": "(stereo not given)", "lipid storage change, negative = inhibition": "inconclusive: -11%"}, {"smiles": "Cc1ccc(S(=O)(=O)N2CCN=C2c2ccccc2)cc1C", "lipid storage change, negative = inhibition": "inconclusive: 15.8%"}, {"smiles": "COc1ccc(CNC(=O)CSc2cccc3cccnc23)cc1", "Potency": "inconclusive: 6.51 µM [rising, full curve, poor fit]"}, {"smiles": "COc1ccc(NC(=O)CC2C(=O)NCCN2C(=O)c2ccccc2)cc1", "note": "(stereo not given)", "lipid storage change, negative = inhibition": "inconclusive: -17.8%"}, {"smiles": "CCC(C)/C(C)=N/NC(=O)c1ccc(COc2ccc(Cl)c(C)c2)cc1", "note": "(stereo not given)", "Potency": "inconclusive: 29.1 µM [activator, single point]"}, {"smiles": "CCNC(=S)N(Cc1cc2cc(C)cc(C)c2[nH]c1=O)C1CCCC1", "Potency": "inconclusive: 20.6 µM [activator, partial curve, poor fit]"}, {"smiles": "CCC(=O)N(Cc1cc2ccccc2[nH]c1=O)c1ccccc1OC", "lipid storage change, negative = inhibition": "inconclusive: -14.1%"}, {"smiles": "Cc1ccc(-c2csc3ncnc(Cl)c23)cc1", "lipid storage change, negative = inhibition": "inconclusive: -6.52%"}, {"smiles": "C/C(=N\\NC(=O)CCc1ccc(S(=O)(=O)N2CCOCC2)cc1)c1ccccc1Cl", "lipid storage change, negative = inhibition": "inactive: -11%"}, {"smiles": "COC(=O)COc1cccc(NC(=O)c2ccccc2)c1", "lipid storage change, negative = inhibition": "inconclusive: -52.3%"}, {"smiles": "CC(=O)c1c(C(C)=O)c(C)n(NC(=O)c2ccc(Cl)cc2)c1C", "Potency": "inconclusive: 0.206 µM [falling, full curve]"}]}]}
